PubChem BioAssay AID504774 – Drosophila RNAi Screening Center – 2011
Purpose: 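Knock-downs that shift viability of MMS-exposed cells relative to untreated ones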 (primary screen). System: Drosophila Kc167 cells. Reagent: long dsRNA against Drosophila genes, about 0.25 µg dsRNA per well. Time to read-out: about 6 days: 3 days knock-down, then 3 days with or without MMS. Challenge: methyl methanesulphonate 0.004% (w/v) for 3 days after knock-down. Measured: 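Viability in wells given MMS, read as ATP luminescence, normalised by quantiles plate by plate and averaged across replicates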. Scale: mean viability with MMS: higher = more surviving cells after MMS.
The screen tested about 23,000 reagents; below is an unselected part of those that have a named target and a result. 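Values are quantile-normalised luminescence on an arbitrary scale; higher means more cells surviving MMS.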 A plus sign joins genes that one reagent is predicted to hit. Not all columns of the deposit are shown. No sequences are given here.

What did the screen give for CG30122 [SID104186568]?
mean viability with MMS: 3.52e6

For CG30122 [SID104186727], what does the deposit list?
mean viability with MMS: 3.69e6

For CG4332 [SID104199682], how do the results read?
mean viability with MMS: 3.47e6

Which result is listed for ProtA [SID104183164]?
mean viability with MMS: 3.58e6

With CG32079 [SID104202044], what was measured?
mean viability with MMS: 3.60e6

For CG10254 [SID104193945], how do the results read?
mean viability with MMS: 3.32e6

Which result is listed for CG32087 [SID104190598]?
mean viability with MMS: 3.54e6

For CG2200 [SID104199632], what does the deposit list?
mean viability with MMS: 3.49e6

With Rrp46 [SID104195329], what was measured?
mean viability with MMS: 3.64e6

What is on record for shrb [SID104186853]?
mean viability with MMS: 3.34e6

For CG13151 [SID104186068], what does the deposit list?
mean viability with MMS: 3.46e6

With CG5160 [SID104182613], how do the results read?
mean viability with MMS: 3.58e6

For nAChRbeta3 [SID104180117], what does the deposit list?
mean viability with MMS: 3.43e6

Which result is listed for Socs36E [SID104182247]?
mean viability with MMS: 3.61e6

What did the screen give for CG7168 [SID104196000]?
mean viability with MMS: 3.58e6

What did the screen give for Orp8 [SID104194902]?
mean viability with MMS: 3.98e6

How did the screen score Orp8 [SID104195504]?
mean viability with MMS: 3.74e6

With CG44422 [SID104198677], how do the results read?
mean viability with MMS: 3.20e6

Which result is listed for CG44422 [SID104199172]?
mean viability with MMS: 3.38e6

With CG44422 [SID104199272], how do the results read?
mean viability with MMS: 3.37e6

With CG44422 [SID104202641], what does the deposit list?
mean viability with MMS: 3.57e6

What is on record for CG14180 (retired record) [SID104189971]?
mean viability with MMS: 3.22e6

With CG9581 [SID104200487], how do the results read?
mean viability with MMS: 3.52e6

For CG9581 [SID104201773], what does the deposit list?
mean viability with MMS: 3.40e6

For Npc2b [SID104195256], what does the deposit list?
mean viability with MMS: 3.69e6

What is on record for CG2100 [SID104192095]?
mean viability with MMS: 3.54e6

Which result is listed for Spn43Aa [SID104185909]?
mean viability with MMS: 3.71e6

With org-1 [SID104198602], what was measured?
mean viability with MMS: 3.15e6

For org-1 [SID104202331], what does the deposit list?
mean viability with MMS: 2.89e6

For CycB [SID104184397], how do the results read?
mean viability with MMS: 3.40e6

How did the screen score CG4455 [SID104181775]?
mean viability with MMS: 3.48e6

With CG4455 [SID104201365], what was measured?
mean viability with MMS: 3.58e6

What is on record for CG11779 + CG5835 [SID104195678]?
mean viability with MMS: 3.60e6

With Ercc1 [SID104187216], how do the results read?
mean viability with MMS: 3.34e6

With CG15117 [SID104186331], how do the results read?
mean viability with MMS: 3.58e6

What did the screen give for CG1999 [SID104197991]?
mean viability with MMS: 3.47e6

What is on record for CG17486 [SID104187544]?
mean viability with MMS: 3.56e6

What did the screen give for Eig71Ej [SID104190949]?
mean viability with MMS: 3.66e6

How did the screen score CG8569 [SID104187006]?
mean viability with MMS: 3.64e6

With CG11458 [SID104191458], how do the results read?
mean viability with MMS: 3.70e6

With Ipk1 [SID104184027], what was measured?
mean viability with MMS: 3.54e6

For Ipk1 [SID104184028], what was measured?
mean viability with MMS: 3.49e6

What did the screen give for Ipk1 [SID104184029]?
mean viability with MMS: 3.73e6

What did the screen give for CG15233 [SID104184759]?
mean viability with MMS: 3.56e6

For CG4151 [SID104198143], what was measured?
mean viability with MMS: 3.60e6

No new results follow: an excerpt of the list.
CG4455 [SID104201365] | mean viability with MMS: 3.58e6
CG11779 + CG5835 [SID104195678] | mean viability with MMS: 3.60e6
Ercc1 [SID104187216] | mean viability with MMS: 3.34e6
CG15117 [SID104186331] | mean viability with MMS: 3.58e6
CG1999 [SID104197991] | mean viability with MMS: 3.47e6
